Assay results from publication PMC12591124.
No constants are given. Whether binding was seen depends on the method and setting. In cells and extracts the contact can be indirect. Some results given as binding are weak or reduced against the parent protein; the word gives no strength.

The chains behind the UniProt entries cited, without tags or fusion partners. Where a name states a change or a piece, a line headed by the entry shows the natural chain unless it says otherwise.
UniProt P08670: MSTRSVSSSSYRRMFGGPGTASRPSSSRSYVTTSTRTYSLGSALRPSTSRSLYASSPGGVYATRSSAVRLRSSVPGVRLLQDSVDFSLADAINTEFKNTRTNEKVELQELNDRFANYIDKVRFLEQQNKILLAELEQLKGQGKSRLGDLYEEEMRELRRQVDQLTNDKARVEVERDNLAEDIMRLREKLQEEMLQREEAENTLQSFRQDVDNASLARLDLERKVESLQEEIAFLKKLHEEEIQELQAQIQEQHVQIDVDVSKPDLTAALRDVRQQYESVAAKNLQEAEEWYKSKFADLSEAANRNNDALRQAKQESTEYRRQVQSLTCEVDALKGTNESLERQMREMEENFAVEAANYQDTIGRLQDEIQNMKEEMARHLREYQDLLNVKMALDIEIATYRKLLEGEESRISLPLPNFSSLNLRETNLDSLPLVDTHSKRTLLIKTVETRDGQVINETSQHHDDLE
UniProt Q99873: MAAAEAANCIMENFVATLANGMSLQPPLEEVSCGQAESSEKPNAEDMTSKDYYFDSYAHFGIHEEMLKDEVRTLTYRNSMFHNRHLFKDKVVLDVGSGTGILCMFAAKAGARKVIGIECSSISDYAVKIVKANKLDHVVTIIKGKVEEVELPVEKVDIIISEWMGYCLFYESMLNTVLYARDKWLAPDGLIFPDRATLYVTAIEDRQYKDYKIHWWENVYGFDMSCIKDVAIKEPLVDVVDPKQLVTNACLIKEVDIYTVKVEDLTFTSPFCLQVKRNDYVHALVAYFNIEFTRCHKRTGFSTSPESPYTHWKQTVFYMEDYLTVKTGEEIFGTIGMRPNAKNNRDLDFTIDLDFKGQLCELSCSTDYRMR

Experiments:
[1] = biological target: Flag-vimentin (HeLa) (human) (UniProt P08670); experiment: co-IP; HeLa cells expressing Flag-vimentin transfected with HA-PRMT1 variants; anti-Flag beads; bound HA-PRMT1 detected
[2] = biological target: vimentin (co-IP with KDM4A, HEK293T) (human) (UniProt P08670); experiment: co-IP; HEK293T cells, with and without KDM4A depletion (Figure S5F); constructs not told in the text shown

| binding [1] | binding [2] | Molecule |
| --- | --- | --- |
| binds |  | HA-PRMT1 K134R (v2, HeLa) (from UniProt Q99873 1-371) (enzyme) |
| binds |  | HA-PRMT1 WT (v2, HeLa) (from UniProt Q99873 1-371) (enzyme) |

The next lines start with the molecule.

| Molecule | binding [1] | binding [2] |
| --- | --- | --- |
| HA-PRMT1 K145R (v2, HeLa) (from UniProt Q99873 1-371) (enzyme) | binds |  |
| KDM4A (HEK293T) (enzyme, UniProt O75164 1-1064) MASESETLNPSARIMTFYPTMEEFRNFSRYIAYIESQGAHRAGLAKVVPPKEWKPRASYDDIDDLVIPAPIQQLVTGQSGLFTQYNIQKKAMTVREFRKIANSDKYCTPRYSEFEELERKYWKNLTFNPPIYGADVNGTLYEKHVDEWNIGRLRTILDLVEKESGITIEGVNTPYLYFGMWKTSFAWHTEDMDLYSINYLHFGEPKSWYSVPPEHGKRLERLAKGFFPGSAQSCEAFLRHKMTLISPLMLKKYGIPFDKVTQEAGEFMITFPYGYHAGFNHGFNCAESTNFATRRWIEYGKQAVLCSCRKDMVKISMDVFVRKFQPERYKLWKAGKDNTVIDHTLPTPEAAEFLKESELPPRAGNEEECPEEDMEGVEDGEEGDLKTSLAKHRIGTKRHRVCLEIPQEVSQSELFPKEDLSSEQYEMTECPAALAPVRPTHSSVRQVEDGLTFPDYSDSTEVKFEELKNVKLEEEDEEEEQAAAALDLSVNPASVGGRLVFSGSKKKSSSSLGSGSSRDSISSDSETSEPLSCRAQGQTGVLTVHSYAKGDGRVTVGEPCTRKKGSAARSFSERELAEVADEYMFSLEENKKSKGRRQPLSKLPRHHPLVLQECVSDDETSEQLTPEEEAEETEAWAKPLSQLWQNRPPNFEAEKEFNETMAQQAPHCAVCMIFQTYHQVEFGGFNQNCGNASDLAPQKQRTKPLIPEMCFTSTGCSTDINLSTPYLEEDGTSILVSCKKCSVRVHASCYGVPPAKASEDWMCSRCSANALEEDCCLCSLRGGALQRANDDRWVHVSCAVAILEARFVNIAERSPVDVSKIPLPRFKLKCIFCKKRRKRTAGCCVQCSHGRCPTAFHVSCAQAAGVMMQPDDWPFVVFITCFRHKIPNLERAKGALQSITAGQKVISKHKNGRFYQCEVVRLTTETFYEVNFDDGSFSDNLYPEDIVSQDCLQFGPPAEGEVVQVRWTDGQVYGAKFVASHPIQMYQVEFEDGSQLVVKRDDVYTLDEELPKRVKSRLSVASDMRFNEIFTEKEVKQEKKRQRVINSRYREDYIEPALYRAIME |  | binds |
